# Reference: PMC12431657, “Discovery and mechanistic insights of dibenzoylmethane as a broad spectrum inhibitor of coronavirus” (PLOS Pathogens, 2025)
# Where a name gives a salt, the structure may show the parent alone. The campaign covered roughly 3,300 compounds. About 95 (3%) showed an effect of 50% or more. Some of the results follow.
# System: HCoV-229E
# Design: species or system Huh-7; HTS, protection from HCoV-229E induced cell death, luminescent cell viability (CellCounting-Lite 2.0), inhibition rate
# Conditions: 24 h post infection, 1 h compound pre-incubation; 10 µM; inhibitor
row,Structure (SMILES),229E Inhibition rate [%]
1,COc1cc(O)c2c(=O)c(OC)c(-c3ccc(OC)c(O)c3)oc2c1 [Ayanin],20.7
2,NCCCS(=O)(=O)O [Tramiprosate],14
3,C=C1C(=O)O[C@H]2C[C@@H](C)[C@@H]3CCC(=O)[C@@]3(C)[C@@H](OC(C)=O)[C@H]12 [Ergolide],57.9
4,"Cn1c(=O)c2[nH]c(=O)[nH]c2n(C)c1=O [1,3-Dimethyluric acid]",7.1
5,C/C=C(/C)C(=O)O[C@H]1c2cc3c(c4c2[C@@]2(CO4)C(=O)C(OC)=C(OC)C=C2C[C@@H](C)[C@H]1C)OCO3 [Heteroclitin D],47.7
6,C/C(=C/CC[C@]1(CO)CC[C@]2(C)[C@H](CC[C@@H]3[C@@]4(C)CC[C@H](O[C@@H]5O[C@H](CO)[C@@H](O)[C@H](O)[C@H]5O[C@@H]5O[C@H](CO)[C@@H](O)[C@H](O)[C@H]5O)[C@@](C)(CO[C@@H]5O[C@H](CO)[C@@H](O)[C@H](O)[C@H]5O)[C@@H]4CC[C@]32C)[C@H]1O)CO [Hosenkoside C],18.4
7,C/C=C(\C)C(=O)O[C@H]1[C@H](O)[C@]2(COC(C)=O)[C@H](O)C[C@]3(C)C(=CC[C@@H]4[C@@]5(C)CC[C@H](O[C@@H]6O[C@H](C(=O)O)[C@@H](O[C@@H]7O[C@H](CO)[C@@H](O)[C@H](O)[C@H]7O)[C@H](O)[C@H]6O[C@@H]6O[C@H](CO)[C@@H](O)[C@H](O)[C@H]6O)[C@](C)(CO)[C@@H]5CC[C@]43C)[C@@H]2CC1(C)C [Isoescin IA],9.5
8,CC1(C)CC(=O)CC(C)(C)N1 [Triacetonamine],5.6
9,CCCCCCCCCCCCCCCCCCCCCCCCCCCC(=O)O [Octacosanoic acid],15.5
10,C=C(CC[C@@H](C(=O)O)[C@H]1[C@H](O)C[C@@]2(C)C3=CC[C@@H](C(=C)C)[C@](C)(CCC(=O)O)C3=CC[C@]12C)C(C)C [Poricoic acid A],20.2
11,C=CCC(C)C(=O)O (stereo not drawn) [2-Methyl-4-pentenoic Acid],10.3
12,CCOC(=O)CC(=O)C(C)(C)C [Ethyl pivaloylacetate],42.2
13,C[C@H](CO)C1=C(O)C(=O)c2c(ccc3c2CCCC3(C)C)C1=O [Neocryptotanshinone],7.2
14,C/C=C/c1ccc(OC(C)=O)c(OC)c1 [Isoeugenol acetate],8.4
15,C=C(NC(=O)c1csc(-c2nc3c(cc2O)-c2nc(cs2)C(=O)N[C@@H]([C@@H](C)O)C(=O)N/C(=C/C)c2nc(cs2)C(=O)N[C@H]2C[C@H](O)C(=O)OCc4cccc5[nH]c(c(C)c45)C(=O)SC[C@H](NC(=O)c4csc2n4)c2nc-3cs2)n1)C(N)=O [Nosiheptide],29.4
16,O=C(O)Cc1cccc2ccccc12 [1-Naphthaleneacetic acid],18.6
17,NC[C@@H]1O[C@H](O[C@H]2[C@@H](O)[C@H](O[C@@H]3[C@@H](O)[C@H](N)C[C@H](N)[C@H]3O[C@H]3O[C@H](CN)[C@@H](O)[C@H](O)[C@H]3N)O[C@@H]2CO)[C@H](N)[C@@H](O)[C@@H]1O [Neomycin (sulfate)],9.1
18,C/C1=C/CC[C@H](C)C(=O)C[C@@H](C(C)C)C(=O)C1 [Curdione],11.6

# Pulled by compound from the entries so far, two records:
row,Structure (SMILES),229E Inhibition rate [%]
5,C/C=C(/C)C(=O)O[C@H]1c2cc3c(c4c2[C@@]2(CO4)C(=O)C(OC)=C(OC)C=C2C[C@@H](C)[C@H]1C)OCO3 [Heteroclitin D],47.7
14,C/C=C/c1ccc(OC(C)=O)c(OC)c1 [Isoeugenol acetate],8.4

# (continued)

row,Structure (SMILES),229E Inhibition rate [%]
1,NC(=O)c1ccc[n+]([C@@H]2O[C@H](CO)[C@@H](O)[C@H]2O)c1 [Nicotinamide riboside (chloride)],18.1
2,NC(CCCC(=O)O)C(=O)O (stereo not drawn) [Aminoadipic acid],8
3,O=C([O-])c1ccc[n+]([C@@H]2O[C@H](CO)[C@@H](O)[C@H]2O)c1 [Nicotinic acid riboside],16.3
4,CC(O)(CC(=O)O)CC(=O)O [Meglutol],20.1
5,CC(/C=C/C=C(\C)C(=O)O[C@@H]1O[C@H](CO[C@@H]2O[C@H](CO)[C@@H](O)[C@H](O)[C@H]2O)[C@@H](O)[C@H](O)[C@H]1O)=C\C=C\C=C(C)\C=C\C=C(/C)C(=O)O[C@@H]1O[C@H](CO[C@@H]2O[C@H](CO)[C@@H](O)[C@H](O)[C@H]2O)[C@@H](O)[C@H](O)[C@H]1O [Crocin],34.4
6,CC1CCC(C(C)C)C(O)C1 (racemic) [DL-Menthol],12.1
7,COc1cc(O)c(C(=O)/C=C/c2ccccc2)c(OC)c1 [Flavokawain B],40.9
8,C=C[C@H]1[C@H](O[C@@H]2O[C@H](CO)[C@@H](O)[C@H](O)[C@H]2O)OC=C2C(=O)OCC[C@H]21 [Sweroside],9.8
9,C[C@@]12C[C@@]3(O)O[C@@H](O1)[C@]1(COC(=O)c4ccccc4)[C@H]3C[C@@]12O[C@@H]1O[C@H](COC(=O)c2ccccc2)[C@@H](O)[C@H](O)[C@H]1O [Benzoylpaeoniflorin],4.9
10,COc1ccc2c(c1OC)C(OC)N(C)c1c-2ccc2cc3c(cc12)OCO3 (stereo not drawn) [Angoline],9
11,Cc1ccc(-c2ccccc2)cc1 [4-Methylbiphenyl],11.9
12,O=C(O)[C@H](O)Cc1ccc(O)c(O)c1 [Danshensu],12.4
13,C[C@H]1[C@H](C)CC[C@]2(C(=O)O)CC[C@]3(C)C(=CC[C@@H]4[C@@]5(C)C[C@@H](O)[C@H](O)[C@@](C)(CO)[C@@H]5[C@H](O)C[C@]43C)[C@H]12 [Madecassic acid],5.1
14,C/C=C(/C)C(=O)O[C@H]1c2cc(OC)c(OC)c(OC)c2-c2c(cc3c(c2OC)OCO3)C[C@H](C)[C@]1(C)O [Schisantherin B],54.7
15,CC(C)=CCc1c(-c2ccc(O)c3c2OC(C)(C)C=C3)oc2cc(O)cc(O)c2c1=O [Kuwanon A],3.8
16,CC(C)=CCc1cc(C(=O)/C=C/c2ccc(O)cc2)c(O)cc1O [Bavachalcone],6.1
17,O=c1c2ccccc2[nH]c2ccccc12 [Acridone],9.8
18,CN1CCN2c3ccccc3Cc3ccccc3C2C1 (stereo not drawn) [Mianserin (hydrochloride)],0
